The results in this text go back to the supplement of paper PMC11732987, “Enantioselective OTUD7B fragment discovery through chemoproteomics screening and high-throughput optimisation” (Communications Chemistry, 2025).

By UniProt entry, the sequences of proteins in these tests, tags left out. Where a name states a change or a piece, a line headed by the entry shows the natural chain unless it says otherwise.
UniProt O60934: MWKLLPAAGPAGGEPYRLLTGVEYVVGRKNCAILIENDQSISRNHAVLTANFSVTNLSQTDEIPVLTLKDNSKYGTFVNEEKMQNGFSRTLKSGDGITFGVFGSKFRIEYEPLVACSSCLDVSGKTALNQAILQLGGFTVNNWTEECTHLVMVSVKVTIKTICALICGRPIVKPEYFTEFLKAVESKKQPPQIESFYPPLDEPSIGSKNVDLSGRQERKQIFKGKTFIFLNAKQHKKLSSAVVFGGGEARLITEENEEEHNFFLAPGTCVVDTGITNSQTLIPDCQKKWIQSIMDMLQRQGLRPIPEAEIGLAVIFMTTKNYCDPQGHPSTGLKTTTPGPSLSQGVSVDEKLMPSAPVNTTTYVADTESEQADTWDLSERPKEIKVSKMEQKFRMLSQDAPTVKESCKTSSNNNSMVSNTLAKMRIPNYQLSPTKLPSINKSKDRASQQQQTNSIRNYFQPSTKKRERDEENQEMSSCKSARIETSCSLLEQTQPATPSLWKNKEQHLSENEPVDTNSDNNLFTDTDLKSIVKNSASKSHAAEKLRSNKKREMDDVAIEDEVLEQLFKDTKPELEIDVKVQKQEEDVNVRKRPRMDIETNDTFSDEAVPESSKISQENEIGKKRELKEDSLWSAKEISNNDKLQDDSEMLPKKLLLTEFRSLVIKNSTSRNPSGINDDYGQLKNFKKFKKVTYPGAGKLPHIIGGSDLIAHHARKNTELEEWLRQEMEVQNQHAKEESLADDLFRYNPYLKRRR
UniProt Q8WX92, whole entry, looked up: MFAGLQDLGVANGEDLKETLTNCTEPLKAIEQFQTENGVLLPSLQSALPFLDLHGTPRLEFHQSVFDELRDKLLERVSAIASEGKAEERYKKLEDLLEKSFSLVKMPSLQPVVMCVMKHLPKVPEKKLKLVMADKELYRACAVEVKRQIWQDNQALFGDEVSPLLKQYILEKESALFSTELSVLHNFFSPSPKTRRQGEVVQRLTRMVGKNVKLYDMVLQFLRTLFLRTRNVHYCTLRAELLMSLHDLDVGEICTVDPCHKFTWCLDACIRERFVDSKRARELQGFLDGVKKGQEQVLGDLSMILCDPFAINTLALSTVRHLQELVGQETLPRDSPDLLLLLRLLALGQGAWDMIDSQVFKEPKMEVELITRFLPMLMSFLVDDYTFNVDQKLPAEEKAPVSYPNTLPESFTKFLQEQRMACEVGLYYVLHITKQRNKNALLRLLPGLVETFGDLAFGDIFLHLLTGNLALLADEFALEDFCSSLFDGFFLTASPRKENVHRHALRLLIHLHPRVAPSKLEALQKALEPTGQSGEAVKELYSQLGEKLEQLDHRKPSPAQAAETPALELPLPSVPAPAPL
UniProt Q12986: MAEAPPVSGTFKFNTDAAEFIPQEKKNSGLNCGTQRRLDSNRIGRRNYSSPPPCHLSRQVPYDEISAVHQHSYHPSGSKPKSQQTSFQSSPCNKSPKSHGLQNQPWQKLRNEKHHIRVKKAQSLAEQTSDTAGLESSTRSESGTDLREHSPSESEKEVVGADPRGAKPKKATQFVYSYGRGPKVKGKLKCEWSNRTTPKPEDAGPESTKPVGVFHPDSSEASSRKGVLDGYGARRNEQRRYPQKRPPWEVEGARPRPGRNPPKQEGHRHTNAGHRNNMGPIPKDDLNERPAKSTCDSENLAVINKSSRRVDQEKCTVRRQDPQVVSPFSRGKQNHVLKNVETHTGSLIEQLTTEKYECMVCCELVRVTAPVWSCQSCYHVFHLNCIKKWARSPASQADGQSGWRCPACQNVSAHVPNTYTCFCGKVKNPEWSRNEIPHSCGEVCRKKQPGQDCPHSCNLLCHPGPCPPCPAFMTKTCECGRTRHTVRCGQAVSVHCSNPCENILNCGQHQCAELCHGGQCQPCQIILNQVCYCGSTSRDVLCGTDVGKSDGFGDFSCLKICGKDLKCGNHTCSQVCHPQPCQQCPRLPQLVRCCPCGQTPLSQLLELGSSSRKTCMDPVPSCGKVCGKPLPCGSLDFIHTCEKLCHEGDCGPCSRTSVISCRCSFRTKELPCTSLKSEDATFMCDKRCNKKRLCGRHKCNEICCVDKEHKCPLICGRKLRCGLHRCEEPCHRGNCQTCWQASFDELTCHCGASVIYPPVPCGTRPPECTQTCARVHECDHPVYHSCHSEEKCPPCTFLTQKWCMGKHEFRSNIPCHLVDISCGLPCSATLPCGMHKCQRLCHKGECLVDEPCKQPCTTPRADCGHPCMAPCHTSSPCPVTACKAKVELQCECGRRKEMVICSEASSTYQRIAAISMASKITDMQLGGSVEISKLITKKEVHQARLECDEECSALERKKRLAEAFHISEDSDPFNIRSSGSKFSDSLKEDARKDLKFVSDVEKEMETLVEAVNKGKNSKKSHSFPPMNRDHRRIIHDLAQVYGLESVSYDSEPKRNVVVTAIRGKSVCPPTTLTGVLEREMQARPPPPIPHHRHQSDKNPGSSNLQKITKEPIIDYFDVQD
UniProt Q09161: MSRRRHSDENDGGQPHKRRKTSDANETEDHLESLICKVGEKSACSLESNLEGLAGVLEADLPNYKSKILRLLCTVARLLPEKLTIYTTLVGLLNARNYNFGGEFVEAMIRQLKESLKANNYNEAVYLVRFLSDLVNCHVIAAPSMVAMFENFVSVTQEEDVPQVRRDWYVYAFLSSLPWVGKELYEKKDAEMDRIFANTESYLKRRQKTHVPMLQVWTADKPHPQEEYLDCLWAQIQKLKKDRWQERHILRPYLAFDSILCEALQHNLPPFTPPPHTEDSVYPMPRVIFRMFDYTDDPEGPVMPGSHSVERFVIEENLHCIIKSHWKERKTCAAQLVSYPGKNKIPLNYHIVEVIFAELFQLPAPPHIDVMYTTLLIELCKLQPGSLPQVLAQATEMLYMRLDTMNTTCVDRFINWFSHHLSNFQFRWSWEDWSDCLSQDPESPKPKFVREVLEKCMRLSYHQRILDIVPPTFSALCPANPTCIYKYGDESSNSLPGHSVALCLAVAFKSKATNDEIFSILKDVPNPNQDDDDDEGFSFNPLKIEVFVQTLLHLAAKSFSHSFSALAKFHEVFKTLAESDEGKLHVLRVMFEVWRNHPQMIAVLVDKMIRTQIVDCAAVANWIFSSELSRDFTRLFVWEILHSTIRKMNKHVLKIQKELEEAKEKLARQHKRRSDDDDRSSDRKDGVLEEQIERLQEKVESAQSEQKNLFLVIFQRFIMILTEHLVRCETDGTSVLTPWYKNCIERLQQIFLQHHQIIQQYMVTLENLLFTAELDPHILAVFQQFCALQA
UniProt Q76FK4: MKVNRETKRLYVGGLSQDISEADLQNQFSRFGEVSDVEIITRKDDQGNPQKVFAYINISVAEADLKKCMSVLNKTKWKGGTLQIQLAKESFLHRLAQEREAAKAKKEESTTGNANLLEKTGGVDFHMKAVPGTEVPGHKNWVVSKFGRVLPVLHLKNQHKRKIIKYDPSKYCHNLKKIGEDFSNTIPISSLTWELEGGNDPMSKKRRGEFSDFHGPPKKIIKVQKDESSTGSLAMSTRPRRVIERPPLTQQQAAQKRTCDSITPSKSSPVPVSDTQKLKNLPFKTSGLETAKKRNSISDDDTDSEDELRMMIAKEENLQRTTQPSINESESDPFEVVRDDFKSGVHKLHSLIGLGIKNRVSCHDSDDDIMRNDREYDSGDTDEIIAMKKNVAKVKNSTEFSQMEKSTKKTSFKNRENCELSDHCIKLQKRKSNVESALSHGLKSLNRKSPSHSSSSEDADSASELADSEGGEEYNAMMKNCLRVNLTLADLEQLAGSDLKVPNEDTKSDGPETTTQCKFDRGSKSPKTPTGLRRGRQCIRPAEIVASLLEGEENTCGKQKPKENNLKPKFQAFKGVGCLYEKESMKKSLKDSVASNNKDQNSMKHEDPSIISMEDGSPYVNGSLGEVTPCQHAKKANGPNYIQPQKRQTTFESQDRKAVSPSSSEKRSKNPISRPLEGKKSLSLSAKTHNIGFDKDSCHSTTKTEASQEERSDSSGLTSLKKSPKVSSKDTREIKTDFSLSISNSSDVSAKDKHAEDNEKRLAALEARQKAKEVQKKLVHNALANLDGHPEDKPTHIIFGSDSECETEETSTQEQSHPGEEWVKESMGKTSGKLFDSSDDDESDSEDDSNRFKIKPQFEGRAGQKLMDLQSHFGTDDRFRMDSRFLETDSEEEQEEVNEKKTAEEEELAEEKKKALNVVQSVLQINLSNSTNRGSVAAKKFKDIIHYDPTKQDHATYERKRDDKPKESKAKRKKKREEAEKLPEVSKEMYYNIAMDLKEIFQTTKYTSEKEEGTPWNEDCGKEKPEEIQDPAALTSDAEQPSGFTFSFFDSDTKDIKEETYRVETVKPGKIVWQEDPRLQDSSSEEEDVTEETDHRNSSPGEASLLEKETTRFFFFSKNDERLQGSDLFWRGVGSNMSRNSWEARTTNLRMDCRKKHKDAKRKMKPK
UniProt O75306, whole entry, looked up: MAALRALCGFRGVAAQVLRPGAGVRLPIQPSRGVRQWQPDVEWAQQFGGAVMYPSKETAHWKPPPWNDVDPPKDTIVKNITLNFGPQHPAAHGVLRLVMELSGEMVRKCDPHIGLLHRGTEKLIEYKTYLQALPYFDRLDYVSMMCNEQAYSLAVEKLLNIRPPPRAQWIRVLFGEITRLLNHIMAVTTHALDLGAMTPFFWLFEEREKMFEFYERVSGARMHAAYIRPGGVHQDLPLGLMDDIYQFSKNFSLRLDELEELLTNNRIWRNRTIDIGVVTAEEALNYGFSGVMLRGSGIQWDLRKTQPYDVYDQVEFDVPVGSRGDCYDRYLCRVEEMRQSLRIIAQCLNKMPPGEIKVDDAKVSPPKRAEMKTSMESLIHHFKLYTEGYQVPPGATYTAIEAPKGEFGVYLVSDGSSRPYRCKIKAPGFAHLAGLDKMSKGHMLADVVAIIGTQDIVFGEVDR
UniProt Q9NX24: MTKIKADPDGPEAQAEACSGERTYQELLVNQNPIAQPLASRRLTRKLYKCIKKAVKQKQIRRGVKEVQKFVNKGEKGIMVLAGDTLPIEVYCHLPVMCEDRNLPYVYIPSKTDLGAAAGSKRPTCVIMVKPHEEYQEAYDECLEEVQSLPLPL
UniProt Q6ZNB6: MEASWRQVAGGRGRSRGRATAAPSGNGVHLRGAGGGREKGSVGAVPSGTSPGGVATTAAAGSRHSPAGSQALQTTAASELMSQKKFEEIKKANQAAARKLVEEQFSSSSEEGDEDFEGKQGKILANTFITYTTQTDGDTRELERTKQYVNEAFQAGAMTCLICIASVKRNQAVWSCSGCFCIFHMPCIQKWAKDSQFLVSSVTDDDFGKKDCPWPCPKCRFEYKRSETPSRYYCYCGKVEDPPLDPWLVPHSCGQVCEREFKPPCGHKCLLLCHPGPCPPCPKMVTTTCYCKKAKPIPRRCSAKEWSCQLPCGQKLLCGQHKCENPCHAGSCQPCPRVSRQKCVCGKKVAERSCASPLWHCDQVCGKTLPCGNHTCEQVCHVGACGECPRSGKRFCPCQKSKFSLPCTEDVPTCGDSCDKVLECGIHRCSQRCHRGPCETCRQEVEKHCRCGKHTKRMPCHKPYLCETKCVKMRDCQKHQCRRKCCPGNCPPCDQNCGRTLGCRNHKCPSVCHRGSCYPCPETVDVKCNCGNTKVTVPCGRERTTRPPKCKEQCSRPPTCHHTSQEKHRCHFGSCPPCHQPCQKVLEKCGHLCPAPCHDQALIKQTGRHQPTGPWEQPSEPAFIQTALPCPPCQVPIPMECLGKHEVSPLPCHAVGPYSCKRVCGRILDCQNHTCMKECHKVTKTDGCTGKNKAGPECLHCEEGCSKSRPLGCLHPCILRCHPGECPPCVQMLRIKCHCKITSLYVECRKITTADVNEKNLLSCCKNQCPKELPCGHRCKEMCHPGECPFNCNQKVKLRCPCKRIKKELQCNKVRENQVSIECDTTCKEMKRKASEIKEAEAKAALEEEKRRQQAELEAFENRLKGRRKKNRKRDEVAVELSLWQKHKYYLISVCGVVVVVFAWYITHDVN
UniProt Q7Z628: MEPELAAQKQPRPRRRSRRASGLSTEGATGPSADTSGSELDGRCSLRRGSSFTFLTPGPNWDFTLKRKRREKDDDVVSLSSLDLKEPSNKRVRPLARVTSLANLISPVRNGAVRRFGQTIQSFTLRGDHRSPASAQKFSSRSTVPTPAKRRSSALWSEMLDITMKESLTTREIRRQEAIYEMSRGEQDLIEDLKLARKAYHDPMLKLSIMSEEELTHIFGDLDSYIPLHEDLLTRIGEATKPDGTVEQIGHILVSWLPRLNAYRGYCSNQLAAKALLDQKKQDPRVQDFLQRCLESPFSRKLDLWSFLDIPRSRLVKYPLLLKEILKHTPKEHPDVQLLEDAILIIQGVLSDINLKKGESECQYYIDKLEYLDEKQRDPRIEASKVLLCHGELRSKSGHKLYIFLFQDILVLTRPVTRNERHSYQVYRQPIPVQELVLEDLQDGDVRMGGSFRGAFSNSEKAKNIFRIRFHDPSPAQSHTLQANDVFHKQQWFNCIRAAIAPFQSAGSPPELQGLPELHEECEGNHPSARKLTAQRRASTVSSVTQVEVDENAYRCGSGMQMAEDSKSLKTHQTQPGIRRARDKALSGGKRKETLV

This is one part of the list. The data scatter; read single values as rough.

Compound in one assay: ClCC(=O)N[C@@H]1CCCc2ccccc12
As to the kind of experiment: log2 mean competition ratio of IA-DTB cysteine labelling (DMSO/compound) (log2 ratio); higher = stronger cysteine engagement by compound. Particulars: 50 µM; treatment time: 4 h; cell line lysate: HEK293T. The procedure:
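IA-DTB competitive cysteine chemoproteomics in HEK293T RIPA lysate. Lysates were treated with compound 29 or 30 at 50 or 200 µM for 4 h, then IA-DTB (500 µM, 1 h), trypsin-digested, NeutrAvidin-enriched and analysed by diaPASEF. Competition ratio = intensity DMSO / intensity compound (n=4 treated, n=64 DMSO); binding: mean log2 CR ≥ 1 and p ≤ 0.05 plus QC filters. Target is the cysteine site.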
On to NBN C323 (UniProt O60934), for which the “log2 mean competition ratio” value is -0.039.
For the target NAV2 C1288 (UniProt Q8IVL1), the “log2 mean competition ratio” value is -0.127.
Turning to NOMO3;NOMO2 C788;(C788), the “log2 mean competition ratio” value came to 0.0867.
Turning to NEDD4;NEDD4L C1286;(C942), the “log2 mean competition ratio” value worked out at 0.535.
Regarding NAV1 C1446 (UniProt Q8NEY1), the “log2 mean competition ratio” value was -0.169.
For NELFB C23 (UniProt Q8WX92), the “log2 mean competition ratio” value was -0.0633.
On to NFX1 C1067 (UniProt Q12986), for which the “log2 mean competition ratio” value is 0.0514.
On the same count and under the same terms, for NCBP1 C332 (UniProt Q09161) the value was -0.0155.
As to NOL8 C517 (UniProt Q76FK4), the “log2 mean competition ratio” value amounted to 0.0284.
The same measure, in the same setting: the figure for NDUFS2 C347 (UniProt O75306) is 0.431; for NHP2 C18 (UniProt Q9NX24) it is -0.163; for NFXL1 C539 (UniProt Q6ZNB6) it is -0.214.
Regarding NCBP1 C36 (UniProt Q09161), the “log2 mean competition ratio” value was -0.32.
Consider NET1 C293 (UniProt Q7Z628), for which the “log2 mean competition ratio” value was -0.181.
Still for that read-out and setting: for NEIL3 C579 the value was 0.0395.
Regarding NBEA C315 (UniProt Q8NFP9), the “log2 mean competition ratio” value turned out to be 0.19.
Regarding NKD1 C112, the “log2 mean competition ratio” value was -0.102.
Turning to NCBP1 C320 (UniProt Q09161), the “log2 mean competition ratio” value is -0.344.
On to NIF3L1 C213 (UniProt Q9GZT8), for which the “log2 mean competition ratio” value was found to be 0.144.
Take NCBP1 C409 (UniProt Q09161): the “log2 mean competition ratio” value was -0.0472.

Still in this assay, the particulars now being: 200 µM; treatment time: 4 h; cell line lysate: HEK293T.
Turning to NBN C323 (UniProt O60934), the “log2 mean competition ratio” value is -0.366.
Take NAV2 C1288 (UniProt Q8IVL1): the “log2 mean competition ratio” value was -0.183.
As for NOMO3;NOMO2 C788;(C788), the “log2 mean competition ratio” value was found to be 0.141.
On the same count and under the same terms, the figure for NEDD4;NEDD4L C1286;(C942) is 0.28.
As for NAV1 C1446 (UniProt Q8NEY1), the “log2 mean competition ratio” value turned out to be 0.161.
Turning to NELFB C23 (UniProt Q8WX92), the “log2 mean competition ratio” value was -0.44.
Turning to NFX1 C1067 (UniProt Q12986), the “log2 mean competition ratio” value turned out to be 0.0945.
In the case of NCBP1 C332 (UniProt Q09161), the “log2 mean competition ratio” value was -0.0826.
Take NOL8 C517 (UniProt Q76FK4): the “log2 mean competition ratio” value was found to be 0.18.
As to NDUFS2 C347 (UniProt O75306), the “log2 mean competition ratio” value came to 0.238.
In the case of NHP2 C18 (UniProt Q9NX24), the “log2 mean competition ratio” value was -0.00566.
The same measure, in the same setting: the figure for NFXL1 C539 (UniProt Q6ZNB6) is 0.0633; for NCBP1 C36 (UniProt Q09161) it is 0.258.
For the target NET1 C293 (UniProt Q7Z628), the “log2 mean competition ratio” value was 0.173.
On to NEIL3 C579, for which the “log2 mean competition ratio” value amounted to 0.297.
Turning to NBEA C315 (UniProt Q8NFP9), the “log2 mean competition ratio” value was -0.478.
Regarding NKD1 C112, the “log2 mean competition ratio” value was -0.0246.
NCBP1 C320 (UniProt Q09161): the “log2 mean competition ratio” value stood at 0.108.
Regarding NIF3L1 C213 (UniProt Q9GZT8), the “log2 mean competition ratio” value is -0.161.
On to NCBP1 C409 (UniProt Q09161), for which the “log2 mean competition ratio” value stood at 0.142.
